The labels stand for the following.
B1: H1L2 humanised anti-IL-18 antibody (antibody, human IgG1, kappa, V domains shown)
VH: QVQLVQSGAEVKKPGASVKVSCKVSGEISTGYYFHWVRQAPGKGLEWMGRIDPEDDSTKYAERFKDRVTMTEDTSTDTAYMELSSLRSEDTAVYYCTTWRIYRDSSGRPFYVMDAWGQGTLVTVSS
VL: DIQMTQSPSSVSASVGDRVTITCLASEDIYTYLTWYQQKPGKAPKLLIYGANKLQDGVPSRFSGSGSGTDYTLTISSLQPEDFATYYCLQGSKFPLTFGQGTKLEIKR
B2: H1L3 humanised anti-IL-18 antibody (antibody, human IgG1, kappa, V domains shown)
VH: B1 VH
VL: B1 VL with K45Q, F83E, A84G, T85D
B3: H3L3 humanised anti-IL-18 antibody (antibody, human IgG1, kappa, V domains shown)
VH: B1 VH with W36F, Q39R, A40R, E72A, V93T, Y95F
VL: B1 VL with K45Q, F83E, A84G, T85D
B4: H3L2 humanised anti-IL-18 antibody (antibody, human IgG1, kappa, V domains shown)
VH: B1 VH with W36F, Q39R, A40R, E72A, V93T, Y95F
VL: B1 VL
B5: 2C10 rat-human chimera (chimaeric antibody 2C10c) (antibody, V domains shown)
VH: EVQLQQSGAELVRPGTSVKLSCKVSGEISTGYYFHFVRRRPGQGLEWIGRIDPEDDSTKYAERFKDRATLTAQTSSNTAYLNLSSLTSEDTATYFCTTWRIYRDSSGRPFYVMDAWGQGTLVTVSS
VL: DIQMTQSPASLSASLGETVSIECLASEDIYTYLTWYQQKPGKSPQLLIYGANKLQDGVPSRFSGSGSGTQYSLKISGIQPEDEGDYFCLQGSKFPLTFGSGTKLEIKR
B6: H3L1 humanised anti-IL-18 antibody (antibody, human IgG1, kappa, V domains shown)
VH: B1 VH with W36F, Q39R, A40R, E72A, V93T, Y95F
VL: B1 VL with Y71F
B7: H1L1 humanised anti-IL-18 antibody (antibody, human IgG1, kappa, V domains shown)
VH: B1 VH
VL: B1 VL with Y71F
B8: H2L1 humanised anti-IL-18 antibody (antibody, human IgG1, kappa, V domains shown)
VH: B1 VH with Q39R, A40R
VL: B1 VL with Y71F

Where a chain is given by its changes, count along the chain named. These are yes or no findings as the source states them, for the method shown. A result given as binding can be weak or reduced; the word gives no strength.

One assay has as its target Rhesus IL-18 (rhesus (rhesus/cynomolgus)). Kind of assay: Rhesus IL18 binding ELISA, antibody titrated, OD 490 nm. Background: ELISA stands for enzyme-linked immunosorbent assay.
As for B1, the binding entry is given as “binds”.
On to B2, for which the binding result is “binds”.
For B3, the binding result is given as “binds”.
On the same count and under the same terms, as for B4, the entry is “binds”.
Still for that read-out and setting: as for B5, the entry is “binds”.

A further assay shares this target. Briefly: SPR Biacore.
Regarding B1, the binding entry was “binds”.
On the same count and under the same terms, the value for B2 was “binds”; that for B6 was “binds”.
Regarding B3, the binding result is reported as “binds”.
The same measure, in the same setting: as for B5, the entry is “binds”.

The next assay shares this target. Kind of assay: ELISA.
For the molecule B1, the binding entry is listed as “binds”.
B2: the binding result was “binds”.
Same read-out and setting: the value for B6 was “binds”.
With B3, the binding entry is recorded as “binds”.
For B5, the binding entry was “binds”.

For a further assay the target is unchanged. Briefly: Rhesus IL-18 binding ELISA, antibody titrated, OD 490 nm.
B5: the binding entry is “binds”.

The target is the same in a further assay. Kind of assay: SPR, Biacore 3000, 25 C. (In general: SPR reads the build-up and loss of mass on a sensor chip optically.)
As for B6, the binding result is recorded as “binds”.
Same read-out and setting: as for B7, the entry is “binds”; as for B8, “binds”.

Values taken from US8133978.
